No constants are given. Whether binding was seen depends on the method and setting. Binding seen in cells or lysates may run through a third protein. Some entries that bind do so weakly or less than the wild type.
Key:
Test in all cases: co-IP
Myc-HIRA WT (human) = Myc-HIRA WT (human) (UniProt P54198)
Myc-HIRA K600R (human) = Myc-HIRA K600R (human) (UniProt P54198)
Myc-HIRA K600Q (human) = Myc-HIRA K600Q (human) (UniProt P54198)
Flag-UBN1 = Flag-UBN1 (UniProt Q9NPG3)

Sequences of proteins named here, by UniProt entry; tags and fusion partners are left off. A change or cut given only in a name is not applied to a line headed by its entry.
UniProt P54198: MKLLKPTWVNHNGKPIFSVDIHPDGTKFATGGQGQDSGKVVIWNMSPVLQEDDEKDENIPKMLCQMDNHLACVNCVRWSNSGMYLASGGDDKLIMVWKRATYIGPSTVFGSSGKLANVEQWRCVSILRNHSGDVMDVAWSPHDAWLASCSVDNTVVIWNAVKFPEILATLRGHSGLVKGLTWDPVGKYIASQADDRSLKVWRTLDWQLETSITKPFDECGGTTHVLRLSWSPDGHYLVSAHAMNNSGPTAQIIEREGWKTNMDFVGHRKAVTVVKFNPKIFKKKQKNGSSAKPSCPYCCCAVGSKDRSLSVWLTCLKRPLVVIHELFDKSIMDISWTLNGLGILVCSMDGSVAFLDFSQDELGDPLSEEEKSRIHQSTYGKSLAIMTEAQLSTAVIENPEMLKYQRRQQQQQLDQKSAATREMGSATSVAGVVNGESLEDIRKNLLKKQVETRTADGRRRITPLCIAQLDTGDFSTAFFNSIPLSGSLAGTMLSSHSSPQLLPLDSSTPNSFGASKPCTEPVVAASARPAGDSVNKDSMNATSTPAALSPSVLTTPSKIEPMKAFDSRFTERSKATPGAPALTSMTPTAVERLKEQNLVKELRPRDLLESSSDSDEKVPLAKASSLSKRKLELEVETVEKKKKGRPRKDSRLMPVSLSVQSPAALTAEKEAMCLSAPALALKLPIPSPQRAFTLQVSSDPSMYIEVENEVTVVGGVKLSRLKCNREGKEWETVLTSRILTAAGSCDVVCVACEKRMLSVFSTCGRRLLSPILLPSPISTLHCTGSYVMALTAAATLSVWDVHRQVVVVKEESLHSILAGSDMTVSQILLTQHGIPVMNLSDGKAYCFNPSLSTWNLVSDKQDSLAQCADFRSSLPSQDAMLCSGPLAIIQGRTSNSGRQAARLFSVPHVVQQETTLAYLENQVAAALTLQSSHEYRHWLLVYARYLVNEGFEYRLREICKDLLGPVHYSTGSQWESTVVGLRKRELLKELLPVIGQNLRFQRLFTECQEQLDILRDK
UniProt Q9NPG3: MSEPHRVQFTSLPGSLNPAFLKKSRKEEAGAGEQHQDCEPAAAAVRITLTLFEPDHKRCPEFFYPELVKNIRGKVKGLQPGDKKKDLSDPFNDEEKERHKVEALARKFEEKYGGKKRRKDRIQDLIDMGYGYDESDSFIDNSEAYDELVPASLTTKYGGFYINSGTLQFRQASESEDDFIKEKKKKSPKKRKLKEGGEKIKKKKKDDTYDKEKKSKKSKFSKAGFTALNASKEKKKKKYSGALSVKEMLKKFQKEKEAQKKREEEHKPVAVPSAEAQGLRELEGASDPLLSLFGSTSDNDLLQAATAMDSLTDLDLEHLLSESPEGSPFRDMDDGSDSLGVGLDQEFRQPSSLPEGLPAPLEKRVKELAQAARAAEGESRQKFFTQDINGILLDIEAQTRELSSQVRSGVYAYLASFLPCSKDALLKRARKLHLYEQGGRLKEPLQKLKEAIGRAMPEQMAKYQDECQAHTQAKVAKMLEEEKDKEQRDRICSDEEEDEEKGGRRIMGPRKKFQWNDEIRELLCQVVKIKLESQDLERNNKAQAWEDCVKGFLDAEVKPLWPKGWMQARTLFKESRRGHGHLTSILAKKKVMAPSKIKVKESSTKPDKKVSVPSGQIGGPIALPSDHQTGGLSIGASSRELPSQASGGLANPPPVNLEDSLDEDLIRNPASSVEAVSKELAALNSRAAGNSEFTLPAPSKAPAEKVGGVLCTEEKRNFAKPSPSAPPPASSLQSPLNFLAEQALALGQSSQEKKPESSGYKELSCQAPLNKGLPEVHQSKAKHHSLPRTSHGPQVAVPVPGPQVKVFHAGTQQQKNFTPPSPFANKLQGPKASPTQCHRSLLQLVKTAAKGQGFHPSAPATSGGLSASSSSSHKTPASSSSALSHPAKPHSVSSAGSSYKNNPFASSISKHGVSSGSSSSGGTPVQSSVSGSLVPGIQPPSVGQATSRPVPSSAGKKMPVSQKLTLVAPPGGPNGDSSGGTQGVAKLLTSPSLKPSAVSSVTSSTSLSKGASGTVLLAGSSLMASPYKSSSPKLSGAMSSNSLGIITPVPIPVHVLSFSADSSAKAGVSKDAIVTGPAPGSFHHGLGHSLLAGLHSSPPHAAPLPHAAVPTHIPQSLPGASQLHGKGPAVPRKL
UniProt Q09472: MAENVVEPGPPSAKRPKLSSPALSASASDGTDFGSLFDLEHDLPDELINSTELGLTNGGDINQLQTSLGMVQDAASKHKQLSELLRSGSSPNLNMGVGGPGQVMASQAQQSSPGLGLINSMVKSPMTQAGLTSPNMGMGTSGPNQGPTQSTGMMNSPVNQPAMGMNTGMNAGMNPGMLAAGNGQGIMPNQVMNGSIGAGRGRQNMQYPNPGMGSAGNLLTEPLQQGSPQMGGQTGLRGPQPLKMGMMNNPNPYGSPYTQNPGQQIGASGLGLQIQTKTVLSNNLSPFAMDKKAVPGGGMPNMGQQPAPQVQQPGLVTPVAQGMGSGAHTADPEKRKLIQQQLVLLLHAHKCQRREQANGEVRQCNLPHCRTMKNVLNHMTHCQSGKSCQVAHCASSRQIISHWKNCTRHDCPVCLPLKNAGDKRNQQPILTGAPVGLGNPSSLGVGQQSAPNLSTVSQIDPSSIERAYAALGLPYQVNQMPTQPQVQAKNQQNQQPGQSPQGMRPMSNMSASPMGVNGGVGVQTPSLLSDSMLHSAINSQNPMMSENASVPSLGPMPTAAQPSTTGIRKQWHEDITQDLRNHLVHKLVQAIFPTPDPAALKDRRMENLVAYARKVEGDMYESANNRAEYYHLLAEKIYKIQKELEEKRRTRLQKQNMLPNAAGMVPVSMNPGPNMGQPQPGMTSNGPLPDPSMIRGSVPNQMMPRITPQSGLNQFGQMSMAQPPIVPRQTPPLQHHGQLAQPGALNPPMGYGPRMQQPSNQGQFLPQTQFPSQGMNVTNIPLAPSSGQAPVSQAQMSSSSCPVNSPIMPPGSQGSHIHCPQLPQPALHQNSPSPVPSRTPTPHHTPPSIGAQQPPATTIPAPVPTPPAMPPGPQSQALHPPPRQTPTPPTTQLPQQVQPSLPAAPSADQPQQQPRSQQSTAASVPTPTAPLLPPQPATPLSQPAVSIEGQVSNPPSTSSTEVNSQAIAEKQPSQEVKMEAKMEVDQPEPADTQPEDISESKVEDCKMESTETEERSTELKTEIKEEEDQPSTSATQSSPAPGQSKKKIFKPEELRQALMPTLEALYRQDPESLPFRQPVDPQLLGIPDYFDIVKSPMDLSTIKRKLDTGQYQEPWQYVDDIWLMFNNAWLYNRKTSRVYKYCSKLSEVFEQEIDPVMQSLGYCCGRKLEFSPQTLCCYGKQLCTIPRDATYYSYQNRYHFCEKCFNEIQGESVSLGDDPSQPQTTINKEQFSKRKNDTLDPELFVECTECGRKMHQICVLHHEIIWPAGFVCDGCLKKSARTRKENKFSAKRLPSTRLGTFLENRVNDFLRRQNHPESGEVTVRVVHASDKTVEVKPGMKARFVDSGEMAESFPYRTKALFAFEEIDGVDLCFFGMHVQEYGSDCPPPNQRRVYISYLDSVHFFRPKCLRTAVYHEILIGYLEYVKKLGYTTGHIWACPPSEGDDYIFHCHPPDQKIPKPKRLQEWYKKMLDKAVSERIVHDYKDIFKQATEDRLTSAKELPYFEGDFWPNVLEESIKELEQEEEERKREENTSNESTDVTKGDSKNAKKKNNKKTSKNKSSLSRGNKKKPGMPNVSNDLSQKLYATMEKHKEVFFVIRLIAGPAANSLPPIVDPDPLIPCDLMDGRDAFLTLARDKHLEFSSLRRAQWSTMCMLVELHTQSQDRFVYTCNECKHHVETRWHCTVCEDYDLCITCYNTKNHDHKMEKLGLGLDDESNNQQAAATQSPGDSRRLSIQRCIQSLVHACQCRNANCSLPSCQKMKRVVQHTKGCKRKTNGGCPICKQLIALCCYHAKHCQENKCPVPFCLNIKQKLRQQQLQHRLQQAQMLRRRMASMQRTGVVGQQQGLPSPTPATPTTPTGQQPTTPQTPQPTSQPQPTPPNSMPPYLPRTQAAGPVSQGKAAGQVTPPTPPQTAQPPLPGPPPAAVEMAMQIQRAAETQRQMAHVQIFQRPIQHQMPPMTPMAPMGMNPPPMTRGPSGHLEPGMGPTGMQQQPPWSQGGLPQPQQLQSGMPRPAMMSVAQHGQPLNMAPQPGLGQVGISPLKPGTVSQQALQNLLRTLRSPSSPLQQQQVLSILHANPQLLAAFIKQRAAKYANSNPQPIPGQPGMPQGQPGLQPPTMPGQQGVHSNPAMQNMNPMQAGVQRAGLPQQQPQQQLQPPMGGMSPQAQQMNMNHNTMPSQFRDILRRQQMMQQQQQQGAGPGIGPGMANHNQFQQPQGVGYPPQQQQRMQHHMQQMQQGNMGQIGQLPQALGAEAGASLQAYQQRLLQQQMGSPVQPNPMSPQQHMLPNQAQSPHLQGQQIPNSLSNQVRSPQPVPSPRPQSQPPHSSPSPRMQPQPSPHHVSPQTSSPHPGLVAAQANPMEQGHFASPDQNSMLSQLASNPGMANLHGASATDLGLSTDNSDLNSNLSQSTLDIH
UniProt Q96EB6: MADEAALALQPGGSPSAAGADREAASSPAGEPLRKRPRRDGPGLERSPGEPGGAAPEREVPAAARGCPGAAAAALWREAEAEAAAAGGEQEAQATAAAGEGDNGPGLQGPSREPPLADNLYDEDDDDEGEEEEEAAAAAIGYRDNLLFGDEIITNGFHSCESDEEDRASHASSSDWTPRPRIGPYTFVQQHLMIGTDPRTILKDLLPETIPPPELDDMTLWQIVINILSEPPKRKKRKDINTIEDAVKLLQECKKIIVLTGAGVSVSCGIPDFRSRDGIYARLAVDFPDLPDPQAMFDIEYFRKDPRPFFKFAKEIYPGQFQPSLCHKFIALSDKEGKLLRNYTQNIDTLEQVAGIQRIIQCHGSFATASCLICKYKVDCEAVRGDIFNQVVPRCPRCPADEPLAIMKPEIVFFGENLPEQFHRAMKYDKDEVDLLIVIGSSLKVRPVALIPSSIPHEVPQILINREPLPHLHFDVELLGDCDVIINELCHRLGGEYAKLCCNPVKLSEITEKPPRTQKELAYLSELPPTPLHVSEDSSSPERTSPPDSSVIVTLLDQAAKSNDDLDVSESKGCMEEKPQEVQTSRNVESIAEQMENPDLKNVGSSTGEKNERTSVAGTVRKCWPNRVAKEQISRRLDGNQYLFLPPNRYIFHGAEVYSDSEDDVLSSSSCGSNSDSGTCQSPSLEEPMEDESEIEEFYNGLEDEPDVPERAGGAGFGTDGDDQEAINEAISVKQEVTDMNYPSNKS

| Substance | binding (Myc-HIRA WT (human)) | binding (Flag-UBN1) | also measured |
| --- | --- | --- | --- |
| Flag-UBN1 (from UniProt Q9NPG3 1-1134) |  |  | binding (Myc-HIRA K600R (human)): binds; binding (Myc-HIRA K600Q (human)): binds |
| Myc-HIRA K600Q (from UniProt P54198 1-1017) |  | binds |  |
| HA-P300 (from UniProt Q09472 1-2414) (enzyme) | binds |  |  |

Continued, in another order:

| binding (Myc-HIRA WT (human)) | binding (Flag-UBN1) | Substance | also measured |
| --- | --- | --- | --- |
| binds |  | Flag-SIRT1 (from UniProt Q96EB6) (enzyme) |  |
|  | binds | Myc-HIRA K600R (from UniProt P54198 1-1017) |  |
